# PubChem BioAssay AID1671195, Yale University, 2021
# Purpose: 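Knockdowns that increase or decrease uptake of fluorescent LDL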 (primary screen)
# Cells: human Huh7 hepatoma cells
# Reagents: siRNA pool against human genes, 18 nM
# Timing: about 2 to 2.5 days of knockdown, then 8 h LDL uptake
# Conditions: DiI-labelled LDL at 30 µg/ml for 8 h, in lipoprotein-deficient serum medium
# Measured: 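Per-cell DiI-LDL intensity by automated imaging; well means scaled to the plate median and given as a robust z-score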
# Direction: robust z-score: higher = more LDL uptake after knockdown
# Rule for the call: 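Active when two or more replicates show a robust z-score above 2 or below -2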
# The whole screen tested about 22,000 reagents; below is a random part of them. Of all reagents, about 1,510 (6.9%) were called active. 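Active includes knockdowns raising or lowering LDL uptake; positive z-scores mean more uptake, negative mean less.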 Entries without a mark were called inactive. No sequences are given here.
The opening 5 entries, ahead of the listing:
Gene,"robust z-score, replicate 1","robust z-score, replicate 2","robust z-score, replicate 3"
SLC25A21,1.31,-1.16,-2.92
SOSTDC1,-0.18,0.178,0.169
ERLIN2,-0.36,-0.244,-1.43
PLEKHD1,1.53,0.819,0.827
LOC392563 (retired record),-0.0792,1.13,0.432

Results, from the start:
Gene,"robust z-score, replicate 1","robust z-score, replicate 2","robust z-score, replicate 3"
SLC25A21,1.31,-1.16,-2.92
SOSTDC1,-0.18,0.178,0.169
ERLIN2,-0.36,-0.244,-1.43
PLEKHD1,1.53,0.819,0.827
LOC392563 (retired record),-0.0792,1.13,0.432
RSRP1,0.168,0.441,-0.0378
HOXB1,0.274,0.68,1.18
NCEH1,-2.2,-1.79,-0.429
CERKL,0.622,0.455,0.979
ZNF124,0.0527,-0.402,-0.00369
LOC440089 (retired record),3.56 (active),3.08,2.95
INTS13,0.339,0.178,0.417
NANOG,-0.933,-0.771,-0.355
ANKRD11,3.53,0.919,1.47
CCNE1,-1.13,-0.782,-1.23
NOM1,-0.63,-1.26,-0.382
MBD6,1.69,0.386,0.0994
PRKAA1,0.0271,0.322,0.75
RNF10,0.864,1.65,0.652
RPS18P7,0.476,-0.0851,0.585
INTS11,-0.776,-1.03,-1.57
HERC2P6,-1.06,-1.3,-0.687
RPL23AP96,-0.224,-0.894,-0.816
GAP43,-0.821,-0.0527,-0.772
LOC157813 (retired record),1.15,0.997,0.0528
MTMR4,-0.063,-0.27,-0.231
SERINC4,-1.5,-1.2,-1.42
LOC440488 (retired record),0.859,0.607,0.461
RABL3,1.71,1.57,0.805
LOC339771 (retired record),1.23,0.915,1.02
RPL23AP12,0.0295,0.236,0.825
ABLIM1,-0.0254,0.393,-0.456
B3GLCT,1.05,-0.0215,1.6
ASGR2,0.0361,-0.301,-0.0282
LOC440997 (retired record),-0.332,-0.518,-0.00415
RPEL1,-0.922,-0.192,-0.26
GYS1,1.82,0.629,1.71
PNPLA6,-1.4,-1.64,-1.22
FLT3,0.345,1.36,2.13
MAP3K11,-0.478,0.437,-0.00241
GAPDHP72,-1.04,-1.18,-1.48
FEM1A,0.121,-0.195,-0.873
APOH,0.525,1.37,0.688
KCTD15,2.06 (active),2.4,3.03
PCDH18,-2.24 (active),-2.19,-2.4
SHISA2,0.0452,0.175,-0.237
